Some entries of the source have several records that differ or are many. Only these are listed. An entry can have further records. Results that share an entry do not match, cause unknown; some may be repeats, others may stem from another dose, organism or construct than stated.
Tested on: MDR1-MDCK cell monolayers
Experiment: MDR1/MDCK assay (blood-brain barrier penetration potential)
Conditions: 5 μM, pH 7.4, 120 minutes, B to A

Row | MDCK permeability (MDR1-MDCK); Mean; Papp (B − A) | SMILES
1 | 24.75 10^−6 cm/s and 6.52 10^−6 cm/s | CC(C)(C)Cc1[nH]nc2c1C1(CN(S(=O)(=O)c3ccccc3)C1)C1=C(CC(C)(C)CC1=O)N2
2 | 16.31 10^−6 cm/s and 6.17 10^−6 cm/s | CC(C)(C)Cc1[nH]nc2c1[C@](C)(c1cccc(S(=O)(=O)CC3CC3)c1)C1=C(CC(C)(C)NC1=O)N2

— patent publication US20250313563A1, “GLYCOGEN SYNTHASE KINASE 3 INHIBITORS AND USES THEREOF” (The Broad Institute, Inc., priority 2022, published 2025)
